Assay results: PubChem BioAssay AID248 (DTP/NCI, 2004)
The list does not hold the whole screen: it gathers tests that were run many times, whatever their T/C, doses with no T/C, and many T/C values between a quarter and a half above the control. Further doses and runs are listed elsewhere. T/C gives the treated animals as a percentage of the vehicle group. Some entries give survivors of the animals treated and no T/C: the source files T/C as zero there, which appears to mark a toxic dose or a test without result, not a measured value. Some doses without a T/C left all or most animals alive at the check, yet need not have been tolerated: survival well below the control is almost never listed, so the zero probably covers shortened survival too. Counts of survivors are from the toxicity check (mostly the fifth day) where no day follows; animals may have died later. Schedule codes are those of the source, taken here to give the interval after Q, in days (D) or hours (H), and the number of doses after X. Some doses were run more than once; the values are given in rising order. Marks such as (2×) give the number of equal values in this list. Where survival is the endpoint, the PubChem record calls one and a half times the control and up active, and a quarter to a half above the control has no call in these data; cut-offs in other NCI protocols can differ. Some T/C values are followed by the survivors on the day toxicity was checked, most often the fifth; without a count, all were alive then. Some schedule codes hold Z or #, which are not explained here.

System: L1210 leukemia ip in BDF1 mice, survival T/C
Assay: NCI In Vivo Anticancer Drug Screen. Data for tumor model L1210 Leukemia (intraperitoneal) in B6D2F1 (BDF1) mice
Conditions: T/C endpoint: median survival time, higher T/C = longer survival

Q: What does the source list for `COc1cccc2c1C(=O)c1c(O)c3c(c(O)c1C2=O)C[C@@](O)(C(=O)CO)C[C@@H]3OC1CC(N)C(O)C(C)O1` (stereo not given in full)?
A: T/C (dose: 8.0 mg/kg/injection, schedule: Q01DX001 (ip), vehicle: saline, evaluated on day 30): 226 % of control; T/C (dose: 8.0 mg/kg/injection, schedule: Q01DX001 (ip), vehicle: saline, evaluated on day 60): 149, 151, 155, 160 [9 of 10 alive], 168 % of control; T/C (dose: 8.0 mg/kg/injection, schedule: Q01DX001 (ip), vehicle: water, evaluated on day 5): 127 and 130 % of control; T/C (dose: 8.0 mg/kg/injection, schedule: Q01DX001 (ip), vehicle: water, evaluated on day 21): 130 % of control; T/C (dose: 8.0 mg/kg/injection, schedule: Q01DX001 (ip), vehicle: water, evaluated on day 30): 127 % of control; T/C (dose: 8.0 mg/kg/injection, schedule: Q## X001 (ip), vehicle: saline): 139 % of control; survivor count (dose: 8.3 mg/kg/injection, schedule: Q04DX003 (ip), vehicle: water): 10 of 10; T/C (dose: 8.4 mg/kg/injection, schedule: Q01DX001 (ip), vehicle: water, evaluated on day 7): 109 and 119 % of control; T/C (dose: 8.4 mg/kg/injection, schedule: Q01DX001 (ip), vehicle: water, evaluated on day 24): 111 and 122 % of control; T/C (dose: 8.4 mg/kg/injection, schedule: Q01DX001 (ip), vehicle: water, evaluated on day 30): 110 % of control; T/C (dose: 8.4 mg/kg/injection, schedule: Q01DX001 (ip), vehicle: water, evaluated on day 33): 150 % of control; T/C (dose: 8.4 mg/kg/injection, schedule: Q01DX001 (ip), vehicle: water, evaluated on day 60): 118 and 122 % of control; T/C (dose: 8.4 mg/kg/injection, schedule: Q03HX008 (ip), vehicle: water, evaluated on day 7): 78, 83, 94 % of control; T/C (dose: 8.4 mg/kg/injection, schedule: Q03HX008 (ip), vehicle: water, evaluated on day 60): 94 % of control; survivor count (dose: 8.4 mg/kg/injection, schedule: Q03HX008 (ip), vehicle: water): 7 of 8 and 8 of 8; T/C (dose: 8.4 mg/kg/injection, schedule: Q04DX003 (ip), vehicle: water, evaluated on day 5): 89 and 94 % of control; T/C (dose: 8.4 mg/kg/injection, schedule: Q04DX003 (ip), vehicle: water, evaluated on day 7): 106, 115, 122, 134 % of control; T/C (dose: 8.4 mg/kg/injection, schedule: Q04DX003 (ip), vehicle: water, evaluated on day 24): 111 % of control; T/C (dose: 8.4 mg/kg/injection, schedule: Q04DX003 (ip), vehicle: water, evaluated on day 31): 122 % of control; T/C (dose: 8.4 mg/kg/injection, schedule: Q04DX003 (ip), vehicle: water, evaluated on day 40): 134 % of control; T/C (dose: 8.4 mg/kg/injection, schedule: Q04DX003 (ip), vehicle: water, evaluated on day 60): 90 (2×), 94, 115, 118 % of control; T/C (dose: 8.4 mg/kg/injection, schedule: Q12DX002 (ip), vehicle: water, evaluated on day 7): 135 % of control; T/C (dose: 8.4 mg/kg/injection, schedule: Q12DX002 (ip), vehicle: water, evaluated on day 24): 138 % of control; T/C (dose: 10.0 mg/kg/injection, schedule: Q01DX001 (ip), vehicle: water, evaluated on day 5): 138, 142, 153 % of control; T/C (dose: 10.0 mg/kg/injection, schedule: Q01DX001 (ip), vehicle: water, evaluated on day 30): 127 and 133 % of control; T/C (dose: 10.0 mg/kg/injection, schedule: Q01DX001 (ip), vehicle: water, evaluated on day 46): 144 % of control; T/C (dose: 10.0 mg/kg/injection, schedule: Q01DX001 (ip), vehicle: water, evaluated on day 61): 121 % of control; T/C (dose: 10.0 mg/kg/injection, schedule: Q08DX002 (ip), vehicle: water): 147 % of control; T/C (dose: 14.0 mg/kg/injection, schedule: Q01DX001 (ip), vehicle: water, evaluated on day 7): 120 and 132 % of control; T/C (dose: 14.0 mg/kg/injection, schedule: Q01DX001 (ip), vehicle: water, evaluated on day 24): 122 and 133 % of control; T/C (dose: 14.0 mg/kg/injection, schedule: Q01DX001 (ip), vehicle: water, evaluated on day 33): 94 % of control; T/C (dose: 14.0 mg/kg/injection, schedule: Q01DX001 (ip), vehicle: water, evaluated on day 60): 104 % of control; survivor count (dose: 14.0 mg/kg/injection, schedule: Q01DX001 (ip), vehicle: water): 7 of 8 and 8 of 8; T/C (dose: 14.0 mg/kg/injection, schedule: Q04DX003 (ip), vehicle: water, evaluated on day 7): 116 and 139 % of control; T/C (dose: 14.0 mg/kg/injection, schedule: Q04DX003 (ip), vehicle: water, evaluated on day 24): 144 % of control; T/C (dose: 14.0 mg/kg/injection, schedule: Q04DX003 (ip), vehicle: water, evaluated on day 60): 113 and 116 % of control; survivor count (dose: 14.0 mg/kg/injection, schedule: Q04DX003 (ip), vehicle: water): 7 of 8; T/C (dose: 14.0 mg/kg/injection, schedule: Q12DX002 (ip), vehicle: water, evaluated on day 7): 132 % of control; T/C (dose: 14.0 mg/kg/injection, schedule: Q12DX002 (ip), vehicle: water, evaluated on day 24): 133 % of control; T/C (dose: 16.0 mg/kg/injection, schedule: Q01DX001 (ip), vehicle: saline, evaluated on day 5): 97, 102, 143, 146, 168, 178, 199, 622 % of control; T/C (dose: 16.0 mg/kg/injection, schedule: Q01DX001 (ip), vehicle: saline, evaluated on day 30): 168 % of control [9 of 10 alive]; T/C (dose: 16.0 mg/kg/injection, schedule: Q01DX001 (ip), vehicle: saline, evaluated on day 60): 102, 146 [8 of 10 alive], 178 [9 of 10 alive], 200 [9 of 10 alive], 258 % of control [9 of 10 alive]; T/C (dose: 16.0 mg/kg/injection, schedule: Q01DX001 (ip), vehicle: water, evaluated on day 5): 63 and 95 % of control; T/C (dose: 16.0 mg/kg/injection, schedule: Q01DX001 (ip), vehicle: water, evaluated on day 21): 95 % of control; survivor count (dose: 16.0 mg/kg/injection, schedule: Q01DX001 (ip), vehicle: water): 7 of 8; T/C (dose: 16.0 mg/kg/injection, schedule: Q## X001 (ip), vehicle: saline): 143 % of control; T/C (dose: 20.0 mg/kg/injection, schedule: Q01DX001 (ip), vehicle: water, evaluated on day 5): 67, 71, 84 % of control; T/C (dose: 20.0 mg/kg/injection, schedule: Q01DX001 (ip), vehicle: water, evaluated on day 30): 90 % of control; survivor count (dose: 20.0 mg/kg/injection, schedule: Q01DX001 (ip), vehicle: water): 7 of 8 (2×), 9 of 10, 8 of 8; survivor count (dose: 20.0 mg/kg/injection, schedule: Q08DX002 (ip), vehicle: water): 10 of 10 and 8 of 8; T/C (dose: 23.0 mg/kg/injection, schedule: Q01DX001 (ip), vehicle: water, evaluated on day 7): 84 and 119 % of control; T/C (dose: 23.0 mg/kg/injection, schedule: Q01DX001 (ip), vehicle: water, evaluated on day 24): 122 % of control; T/C (dose: 23.0 mg/kg/injection, schedule: Q01DX001 (ip), vehicle: water, evaluated on day 60): 95 % of control; survivor count (dose: 23.0 mg/kg/injection, schedule: Q01DX001 (ip), vehicle: water): 5 of 8, 6 of 8 (2×), 8 of 8; survivor count (dose: 32.0 mg/kg/injection, schedule: Q01DX001 (ip), vehicle: water): 6 of 6
